Results are given in words; binding and its absence hold for the method and conditions named. Binding seen in cells or lysates may run through a third protein. A yes stands for co-enrichment or nearness to the bait. Other partners may have been found. For part of these data: No binding means not detected with the bait.

Amino acid sequences for entries named in this document (tags omitted).
UniProt Q5PSV9: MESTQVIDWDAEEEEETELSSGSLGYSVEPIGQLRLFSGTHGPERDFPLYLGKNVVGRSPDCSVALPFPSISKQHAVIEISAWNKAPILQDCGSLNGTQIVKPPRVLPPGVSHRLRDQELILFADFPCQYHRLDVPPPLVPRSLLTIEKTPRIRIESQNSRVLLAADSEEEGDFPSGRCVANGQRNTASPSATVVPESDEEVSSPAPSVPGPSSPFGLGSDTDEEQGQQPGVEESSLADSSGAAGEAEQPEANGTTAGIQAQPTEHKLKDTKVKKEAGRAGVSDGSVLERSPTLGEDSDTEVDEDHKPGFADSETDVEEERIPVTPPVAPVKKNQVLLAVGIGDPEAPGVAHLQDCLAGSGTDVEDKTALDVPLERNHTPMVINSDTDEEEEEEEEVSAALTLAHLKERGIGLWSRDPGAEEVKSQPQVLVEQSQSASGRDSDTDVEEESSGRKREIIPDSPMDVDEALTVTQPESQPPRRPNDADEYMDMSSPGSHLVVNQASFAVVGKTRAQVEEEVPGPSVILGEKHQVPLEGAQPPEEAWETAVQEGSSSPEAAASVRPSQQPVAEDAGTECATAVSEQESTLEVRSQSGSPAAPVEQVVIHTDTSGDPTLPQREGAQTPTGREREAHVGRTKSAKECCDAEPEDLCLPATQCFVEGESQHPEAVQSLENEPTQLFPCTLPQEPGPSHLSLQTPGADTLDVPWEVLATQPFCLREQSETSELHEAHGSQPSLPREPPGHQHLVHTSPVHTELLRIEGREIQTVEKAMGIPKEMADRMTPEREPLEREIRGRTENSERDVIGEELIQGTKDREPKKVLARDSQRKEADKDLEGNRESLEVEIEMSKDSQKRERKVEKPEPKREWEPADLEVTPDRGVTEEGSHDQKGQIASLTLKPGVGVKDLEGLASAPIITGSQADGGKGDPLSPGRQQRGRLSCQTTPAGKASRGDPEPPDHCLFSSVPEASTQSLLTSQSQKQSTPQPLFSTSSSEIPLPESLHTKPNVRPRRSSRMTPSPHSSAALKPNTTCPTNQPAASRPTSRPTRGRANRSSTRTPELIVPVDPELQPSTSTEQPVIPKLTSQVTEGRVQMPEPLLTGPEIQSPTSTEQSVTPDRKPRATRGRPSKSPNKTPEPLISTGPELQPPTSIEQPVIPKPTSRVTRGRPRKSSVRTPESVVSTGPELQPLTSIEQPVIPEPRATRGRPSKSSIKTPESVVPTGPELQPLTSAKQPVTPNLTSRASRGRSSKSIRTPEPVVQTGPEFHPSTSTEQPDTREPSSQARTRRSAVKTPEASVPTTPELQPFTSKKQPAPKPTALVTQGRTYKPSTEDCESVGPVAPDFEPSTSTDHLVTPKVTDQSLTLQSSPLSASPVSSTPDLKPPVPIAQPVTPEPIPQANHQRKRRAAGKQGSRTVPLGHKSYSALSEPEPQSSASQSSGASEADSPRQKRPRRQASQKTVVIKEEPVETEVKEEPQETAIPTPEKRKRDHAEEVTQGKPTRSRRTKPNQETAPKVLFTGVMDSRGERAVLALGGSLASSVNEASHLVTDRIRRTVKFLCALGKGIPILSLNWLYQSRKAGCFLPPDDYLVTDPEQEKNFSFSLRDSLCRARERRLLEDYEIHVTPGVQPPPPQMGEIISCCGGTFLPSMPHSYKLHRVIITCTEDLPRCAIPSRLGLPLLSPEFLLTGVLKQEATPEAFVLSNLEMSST

Experiment [1] has as its target SETDB1 (mouse (endogenous in testis)) (UniProt O88974). Briefly: affinity purification with mass spectrometry; IP-MS on P15 wild-type mouse testis with γH2AX and SETDB1 as bait; LFQ enrichment against control IgG-IP (Welch's t-test, FDR 0.01).
Experiment [2] concerns the target γH2AX (histone H2AX phosphorylated at serine-139) (mouse (endogenous in testis)) (UniProt P27661). The description is as above.

Consider MDC1 (from UniProt Q5PSV9 1-1707), for which the binding entry is reported as “no binding” in experiment [1] and “binds” in experiment [2].
In the case of hnRNP K (from UniProt P61979 1-463), in experiment [2], the binding result was “binds”.

The values are drawn from paper PMC6286383.
